No constants are given. Whether binding was seen depends on the method and setting. A result given as binding can be weak or reduced; the word gives no strength.
Legend:
rabbit PAI-1 (rabbit) [1] = assay: P-ELISA (legend of FIG. 12)
rabbit PAI-1 (rabbit) [2] = assay: P-ELISA
rabbit PAI-1 (rabbit) [3] = assay: P-ELISA: biotinylated rabbit PAI-1 on Neutravidin-coated plate, HRP-conjugated secondary antibody, O.D. 450

Measured: binding

B1: CT140 (humanized 33B8 anti-PAI-1 antibody, IgG4 with IgG1 hinge) (antibody, V domains shown)
VH: QVQLVQSGAEVKKPGASVKVSCKASGYTFTNYGMNWVRQAPGQGLEWMGWINTYTGEPTYTDDFKGRFTMTLDTSISTAYMELSRLRSDDTAVYYCAKDVSGFVFDYWGQGTLVTVSS
VL: DIVMTQSPDSLAVSLGERATINCKSSQSLLNIIKQKNCLAWYQQKPGQPPKLLIYWASTRESGVPDRFSGSGSGTDFTLTISSLQAEDVAVYYCQQYYSYPYTFGQGTKLEIKR
notes: The IgG4 hinge was replaced by that of IgG1; also called hP-1; humanized mAb CT140
binds: all assays above

Reference: patent US20100254979A1 (CISTHERA, published 2010)
